Data published in patent US20100249125A1, “INHIBITION OF PROSTGLANDIN E2 RECEPTORS FOR THE TREATMENT OF ENDOMETRIOSIS” (THE TEXAS A&M UNIVERSITY SYSTEM, priority 2009, published 2010).
Where two headings read alike, the source gives them in different places. For some assays here: For at least one compound, name, drawing or mass did not settle the structure. Some results were stated once for a whole list of compounds, not compound by compound.

Columns and labels:
[1] = system: primary cultured eutopic endometrial epithelial cells from patients with endometriosis; settings: in vitro, cited from earlier work
endometriotic implants = settings: rat model; cited from earlier work
[2] = system: human endometriotic epithelial cells 12Z; test: Cell proliferation assay (Coulter counter); format: cell-based; settings: 12Z cells; AH6809 75 μM, AH23848 50 μM, alone or combined, 36 hours; vs control
Procedure: (§1) EP2/EP4 small interfering RNA (siRNA): 12Z and 22B cells (3.0×10^5/well) were cultured in antibiotic-free DMEM/F12 with 10% FBS in six-well tissue culture plates. At 70-80% confluency, cells were used for EP2, EP4 or EP2/EP4 knock-down experiments using SMART-pool siRNA duplex delivered by DharmaFect-1 as described previously (11) and per manufacturer's instructions (Dharmacon Inc, Lafayette, Colo.). As an internal control, MOCK siRNA was used. According to the manufacturer's instructions, SMARTpool siRNA were consisted of at least four individual siRNA duplexes targeted against a specific gene and designed using a bioinformatics technology known as SMARTselection. […] Fluorescence labeled siGLO RISC-free siRNA was transfected separately and transfection efficiency was estimated using a fluorescence microscope. […] Efficiency of siRNA on silencing of EP2 and EP4 genes and proteins was assessed by RT-PCR and western blot, respectively 72 h post-transfection knock-down efficiency was 70-80% in both 12Z and 22B cells.
(§2) Cell Proliferation Assay: The 12Z and 22B cells (1×10^5/well) were cultured in DMEM/F12 with 10% FBS in six-well plates. […] The concentrations for each inhibitor was determined by dose-response studies using […] and an optimal concentration was selected based on its effects on proliferation of human endometriotic cells (FIGS. 6A-6B). […]

[3] = system: human endometriotic stromal cells 22B; test: Cell proliferation assay (Coulter counter); format: cell-based; settings: 22B cells; AH6809 75 μM, AH23848 50 μM, alone or combined, 36 hours; vs control
Procedure: as §1, §2

Cc1ccc(-c2cc(C(F)(F)F)nn2-c2ccc(S(N)(=O)=O)cc2)cc1 [celecoxib]
Growth and survival [1]: prevented growth and survival | Growth and survival ([1]; listed as Celecoxib): prevents growth and survival | Establishment of endometriosis, number and size of endometriotic implants (endometriotic implants): decreased establishment of endometriosis and number and size of endometriotic implants

CC(C)Oc1ccc2c(=O)c3cc(C(=O)O)ccc3oc2c1 [AH6809, 6-Isopropoxy-9-oxoxanthene-2-carboxylic acid]
Decrease of cell proliferation [2]: 50%-55% | Decrease of cell proliferation [3]: 40%-45%
